Values of other authors, collected in patent US6630127B2, “Method for assessing cortical response to blue light” (The McLean Hospital Corporation, priority 2000, dated 2003).
For at least one compound, name, drawing or mass did not settle the structure.

Tested on: visual cortex
Settings: photic stimulation paradigm, humans; cited from earlier work

Structure (SMILES): COC(=O)[C@H]1[C@@H](OC(=O)c2ccccc2)C[C@@H]2CC[C@H]1N2C [cocaine]
- effect on BOLD signal / photic activation in visual cortex: produces an increase in BOLD signal in visual cortex
